From patent US20030157516A1, “G protein coupled receptor” (priority 2000, published 2003)
Some entries of the source have several records that differ or are many. The list is limited to them. The source may hold further records. Results that share an entry seem to repeat one measurement on other runs, samples or individuals.

Chains of the proteins cited; added tags and fusions are not shown.
UniProt Q7TN49, whole entry: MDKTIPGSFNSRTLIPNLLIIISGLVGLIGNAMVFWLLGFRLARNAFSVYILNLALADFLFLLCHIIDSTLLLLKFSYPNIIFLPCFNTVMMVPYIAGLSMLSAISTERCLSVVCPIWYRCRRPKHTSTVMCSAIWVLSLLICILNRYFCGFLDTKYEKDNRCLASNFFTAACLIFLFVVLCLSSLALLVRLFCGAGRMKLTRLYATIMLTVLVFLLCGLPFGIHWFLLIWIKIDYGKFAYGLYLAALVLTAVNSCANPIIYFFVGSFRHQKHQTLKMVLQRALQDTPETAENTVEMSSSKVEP

Biological target: adenine binding rat receptor (Rattus norvegicus, UniProt Q7TN49)
Test: [3H]adenine saturation binding on CHO membranes transiently transfected
Details: transfected cells, 100 μM Gpp-NHp, single experiments; tested as the radiolabelled form; listed as [^3H] adenine

Nc1ncnc2nc[nH]c12
Bmax: 12934 fmoles/mg protein and 31236 fmoles/mg protein
